# PubChem BioAssay AID1259308 | NCATS | 2017
# Purpose: 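Candidate targets for better recombinant protein yield in mammalian cells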 (primary screen)
# System: human HEK293 embryonic kidney cells stably expressing firefly luciferase (HEK-CMV-Luc2-Hygro)
# Knock-down reagent: single siRNA against human genes, 0.8 pmol siRNA per well
# Duration: 72 h
# Measurement: 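Luciferase light (ONE-Glo) measured on one replicate plate set and viability (CellTiter-Glo) on the other, scaled to a negative control siRNA, with robust z-scores and luciferase per cell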
# Scale: total luciferase, z-score and total luciferase, % of control: higher = more reporter protein produced; luciferase per cell, z-score: higher = more reporter output per viable cell; viable cells, % of control: higher = more viable cells
# Call rule: 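Active when the median/MAD z-score for overall luciferase is greater than 3; a gene was taken forward for validation with new siRNAs if at least two of its three siRNAs passed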
# Calls: active = raised luciferase; inactive = no rise
# Here is an unselected part of about 59,000 reagents. About 1,510 of them (2.6%) count as active. 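Calls use total luciferase alone and ignore viability, so some active siRNAs may act by altering cell number.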 A number with no mark means an inactive call. Reagents against one gene are numbered here.
gene,reagent no.,"total luciferase, z-score","total luciferase, % of control","luciferase per cell, z-score","viable cells, % of control"
BUB1B,1,1.2,106,2.04,69.1
BUB1B,2,0.917,100,1.13,83
BUB1B,3,0.287,87.6,0.979,75.6
C2CD3,1,-0.265,76.6,0.247,80.2
C2CD3,2,0.2,85.9,-0.36,105
C2CD3,3,-1.77,46.7,-2.28,95.1
HOXA11,1,-0.423,73.5,-0.614,96.5
HOXA11,2,-0.752,66.9,-1.06,98.9
HOXA11,3,-0.326,75.4,-0.698,101
PLK4,1,0.708,96,1.4,74.2
PLK4,2,-1.68,48.5,-0.957,69.7
PLK4,3,4.55 (active),172,3.48,77
CACNA1I,1,2.53,132,2.36,79.3
CACNA1I,2,0.386,89.6,0.0616,98.5
CACNA1I,3,0.485,91.5,-0.13,106
EBLN1,1,-1.45,53,-0.742,72
EBLN1,2,3.91 (active),160,3.3,74.8
EBLN1,3,1.04,103,1.11,85.6
NME9,1,-0.578,70.4,-0.286,84.8
NME9,2,-0.0116,81.7,-0.122,94.2
NME9,3,-0.069,80.5,-0.282,96.9
SPATA2,1,-0.374,74.5,0.835,66.8
SPATA2,2,-2.79,26.4,-3.59,76
SPATA2,3,-2,42.1,2.02,27.7
